The text below walks through data of the supplement of paper PMC10849652.

Chains of the proteins cited; added tags and fusions are not shown. Lines headed by an entry give the natural chain unless they say otherwise; changes in a name come on top.
UniProt Q9NS93: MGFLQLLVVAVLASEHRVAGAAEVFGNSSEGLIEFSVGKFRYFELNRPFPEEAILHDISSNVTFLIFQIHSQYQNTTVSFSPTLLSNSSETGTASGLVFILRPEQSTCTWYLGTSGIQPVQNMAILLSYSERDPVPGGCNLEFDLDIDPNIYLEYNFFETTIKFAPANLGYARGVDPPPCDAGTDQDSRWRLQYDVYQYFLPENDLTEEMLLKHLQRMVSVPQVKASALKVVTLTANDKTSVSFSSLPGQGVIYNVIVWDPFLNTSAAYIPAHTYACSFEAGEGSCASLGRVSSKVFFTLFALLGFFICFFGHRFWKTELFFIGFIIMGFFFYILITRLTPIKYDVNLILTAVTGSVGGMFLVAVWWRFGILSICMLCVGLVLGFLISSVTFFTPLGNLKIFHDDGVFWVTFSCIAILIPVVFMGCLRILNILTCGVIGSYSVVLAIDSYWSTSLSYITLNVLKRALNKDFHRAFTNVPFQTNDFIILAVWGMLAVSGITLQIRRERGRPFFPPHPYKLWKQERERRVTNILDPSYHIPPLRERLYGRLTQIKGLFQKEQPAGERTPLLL
UniProt Q9H1K6: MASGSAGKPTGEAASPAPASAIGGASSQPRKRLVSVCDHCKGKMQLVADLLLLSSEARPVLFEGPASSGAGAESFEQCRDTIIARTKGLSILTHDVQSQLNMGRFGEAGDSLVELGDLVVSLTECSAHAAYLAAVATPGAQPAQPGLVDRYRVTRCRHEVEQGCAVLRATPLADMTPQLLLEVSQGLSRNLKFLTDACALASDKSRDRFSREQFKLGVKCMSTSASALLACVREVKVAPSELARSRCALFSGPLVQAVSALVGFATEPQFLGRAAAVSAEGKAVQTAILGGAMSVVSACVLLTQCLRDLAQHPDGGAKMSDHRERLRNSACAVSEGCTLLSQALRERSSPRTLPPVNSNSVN
UniProt Q7Z7N9: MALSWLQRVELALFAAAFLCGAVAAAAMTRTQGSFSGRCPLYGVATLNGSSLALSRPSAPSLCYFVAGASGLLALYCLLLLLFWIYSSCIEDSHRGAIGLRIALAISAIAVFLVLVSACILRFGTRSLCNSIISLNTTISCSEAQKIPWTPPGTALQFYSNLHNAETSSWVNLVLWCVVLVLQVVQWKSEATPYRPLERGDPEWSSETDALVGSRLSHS
UniProt Q9BVX2: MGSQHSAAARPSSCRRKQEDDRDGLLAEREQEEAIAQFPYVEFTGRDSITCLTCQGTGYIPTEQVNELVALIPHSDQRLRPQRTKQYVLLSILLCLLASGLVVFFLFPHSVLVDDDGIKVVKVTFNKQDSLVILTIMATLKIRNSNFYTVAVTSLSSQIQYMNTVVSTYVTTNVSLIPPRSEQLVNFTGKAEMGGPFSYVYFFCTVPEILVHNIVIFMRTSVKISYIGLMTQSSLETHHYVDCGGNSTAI
UniProt Q08117: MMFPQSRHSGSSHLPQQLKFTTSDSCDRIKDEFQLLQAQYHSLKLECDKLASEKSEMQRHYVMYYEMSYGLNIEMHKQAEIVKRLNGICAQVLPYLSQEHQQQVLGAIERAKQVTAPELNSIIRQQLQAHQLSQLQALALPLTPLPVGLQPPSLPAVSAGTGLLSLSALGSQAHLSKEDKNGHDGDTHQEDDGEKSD
UniProt Q5SNT2: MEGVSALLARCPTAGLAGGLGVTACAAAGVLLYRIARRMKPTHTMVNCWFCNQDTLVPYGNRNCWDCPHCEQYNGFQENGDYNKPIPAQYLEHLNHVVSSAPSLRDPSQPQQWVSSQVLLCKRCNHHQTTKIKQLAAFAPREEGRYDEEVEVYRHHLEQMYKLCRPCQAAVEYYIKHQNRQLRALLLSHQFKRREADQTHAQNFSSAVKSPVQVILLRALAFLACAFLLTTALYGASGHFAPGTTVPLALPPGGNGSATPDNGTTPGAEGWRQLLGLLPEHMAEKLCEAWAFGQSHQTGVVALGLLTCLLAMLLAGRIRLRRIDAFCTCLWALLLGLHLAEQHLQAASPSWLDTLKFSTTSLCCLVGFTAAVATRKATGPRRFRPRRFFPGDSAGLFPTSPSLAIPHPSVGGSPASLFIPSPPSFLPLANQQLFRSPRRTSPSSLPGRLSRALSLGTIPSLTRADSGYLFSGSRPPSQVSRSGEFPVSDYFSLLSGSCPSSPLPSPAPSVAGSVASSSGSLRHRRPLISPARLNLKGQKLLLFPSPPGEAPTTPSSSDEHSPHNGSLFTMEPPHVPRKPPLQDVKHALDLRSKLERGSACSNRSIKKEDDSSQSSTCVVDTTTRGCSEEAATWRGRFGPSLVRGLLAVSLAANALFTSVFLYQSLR
UniProt A0PK00: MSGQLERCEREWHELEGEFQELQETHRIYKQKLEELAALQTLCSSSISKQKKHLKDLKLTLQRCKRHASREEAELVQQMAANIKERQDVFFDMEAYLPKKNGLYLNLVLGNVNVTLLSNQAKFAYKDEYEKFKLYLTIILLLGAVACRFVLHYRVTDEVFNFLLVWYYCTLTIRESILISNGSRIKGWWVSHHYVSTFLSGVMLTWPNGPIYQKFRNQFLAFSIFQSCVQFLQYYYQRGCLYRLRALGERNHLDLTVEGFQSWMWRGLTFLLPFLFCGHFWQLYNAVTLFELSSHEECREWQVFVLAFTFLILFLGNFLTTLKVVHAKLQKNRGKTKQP
UniProt Q6UWJ1: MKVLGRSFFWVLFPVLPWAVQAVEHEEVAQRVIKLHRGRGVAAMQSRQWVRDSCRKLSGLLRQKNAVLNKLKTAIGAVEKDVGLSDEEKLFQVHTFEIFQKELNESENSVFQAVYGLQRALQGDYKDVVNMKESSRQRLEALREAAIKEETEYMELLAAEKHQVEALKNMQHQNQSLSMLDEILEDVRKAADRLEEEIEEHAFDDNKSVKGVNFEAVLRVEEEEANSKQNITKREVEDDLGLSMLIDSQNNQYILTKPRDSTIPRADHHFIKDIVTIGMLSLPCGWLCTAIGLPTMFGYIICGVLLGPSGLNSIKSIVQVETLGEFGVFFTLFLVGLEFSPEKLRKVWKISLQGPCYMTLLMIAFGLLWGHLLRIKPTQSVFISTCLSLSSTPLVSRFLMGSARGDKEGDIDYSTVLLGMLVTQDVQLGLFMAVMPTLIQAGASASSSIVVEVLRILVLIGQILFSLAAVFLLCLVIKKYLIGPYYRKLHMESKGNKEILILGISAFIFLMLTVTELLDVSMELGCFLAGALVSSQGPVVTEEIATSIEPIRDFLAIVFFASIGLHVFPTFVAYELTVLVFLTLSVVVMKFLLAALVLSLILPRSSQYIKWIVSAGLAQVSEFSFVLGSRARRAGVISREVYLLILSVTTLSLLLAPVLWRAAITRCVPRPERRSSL
UniProt Q8N131: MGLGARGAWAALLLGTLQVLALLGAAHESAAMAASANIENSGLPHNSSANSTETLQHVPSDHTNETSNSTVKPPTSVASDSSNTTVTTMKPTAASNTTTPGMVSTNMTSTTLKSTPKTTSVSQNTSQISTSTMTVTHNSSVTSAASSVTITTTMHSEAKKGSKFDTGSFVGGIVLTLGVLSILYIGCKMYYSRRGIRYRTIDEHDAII
UniProt Q8NCS4: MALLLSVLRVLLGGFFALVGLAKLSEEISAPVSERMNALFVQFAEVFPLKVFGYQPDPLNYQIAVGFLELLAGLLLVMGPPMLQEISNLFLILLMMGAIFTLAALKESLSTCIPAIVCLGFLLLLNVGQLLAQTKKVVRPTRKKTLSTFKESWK
UniProt Q9NX78: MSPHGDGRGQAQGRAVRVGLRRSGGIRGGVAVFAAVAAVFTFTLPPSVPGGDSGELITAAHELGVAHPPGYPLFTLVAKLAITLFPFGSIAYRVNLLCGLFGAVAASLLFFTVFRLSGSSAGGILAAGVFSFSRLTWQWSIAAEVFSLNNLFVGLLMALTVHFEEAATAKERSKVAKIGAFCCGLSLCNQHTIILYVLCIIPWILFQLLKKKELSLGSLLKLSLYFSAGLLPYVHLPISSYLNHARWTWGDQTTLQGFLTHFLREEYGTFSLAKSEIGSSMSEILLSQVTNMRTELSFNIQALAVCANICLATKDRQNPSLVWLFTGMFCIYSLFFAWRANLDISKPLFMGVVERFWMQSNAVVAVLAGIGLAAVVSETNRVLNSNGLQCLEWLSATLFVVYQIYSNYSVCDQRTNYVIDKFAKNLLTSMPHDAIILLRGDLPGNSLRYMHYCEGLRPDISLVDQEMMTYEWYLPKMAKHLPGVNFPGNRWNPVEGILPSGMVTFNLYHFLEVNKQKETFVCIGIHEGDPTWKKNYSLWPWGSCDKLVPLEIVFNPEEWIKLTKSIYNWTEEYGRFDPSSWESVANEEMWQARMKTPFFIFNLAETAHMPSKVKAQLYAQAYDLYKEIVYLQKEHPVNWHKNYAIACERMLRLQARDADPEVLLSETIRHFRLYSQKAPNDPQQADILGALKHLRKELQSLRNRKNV
UniProt P19438, whole entry, looked up: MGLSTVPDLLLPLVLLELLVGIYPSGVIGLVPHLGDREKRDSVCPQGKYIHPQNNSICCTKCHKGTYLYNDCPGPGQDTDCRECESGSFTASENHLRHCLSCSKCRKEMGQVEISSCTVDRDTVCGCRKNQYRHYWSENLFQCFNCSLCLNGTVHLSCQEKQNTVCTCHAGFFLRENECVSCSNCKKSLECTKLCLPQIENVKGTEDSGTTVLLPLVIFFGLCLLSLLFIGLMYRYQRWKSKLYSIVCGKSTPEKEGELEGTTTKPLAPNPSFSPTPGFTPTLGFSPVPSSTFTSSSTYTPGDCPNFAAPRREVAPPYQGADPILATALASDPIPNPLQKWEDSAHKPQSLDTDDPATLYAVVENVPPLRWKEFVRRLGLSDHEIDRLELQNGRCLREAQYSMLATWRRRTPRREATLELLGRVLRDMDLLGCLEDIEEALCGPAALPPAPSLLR
UniProt Q8NE00: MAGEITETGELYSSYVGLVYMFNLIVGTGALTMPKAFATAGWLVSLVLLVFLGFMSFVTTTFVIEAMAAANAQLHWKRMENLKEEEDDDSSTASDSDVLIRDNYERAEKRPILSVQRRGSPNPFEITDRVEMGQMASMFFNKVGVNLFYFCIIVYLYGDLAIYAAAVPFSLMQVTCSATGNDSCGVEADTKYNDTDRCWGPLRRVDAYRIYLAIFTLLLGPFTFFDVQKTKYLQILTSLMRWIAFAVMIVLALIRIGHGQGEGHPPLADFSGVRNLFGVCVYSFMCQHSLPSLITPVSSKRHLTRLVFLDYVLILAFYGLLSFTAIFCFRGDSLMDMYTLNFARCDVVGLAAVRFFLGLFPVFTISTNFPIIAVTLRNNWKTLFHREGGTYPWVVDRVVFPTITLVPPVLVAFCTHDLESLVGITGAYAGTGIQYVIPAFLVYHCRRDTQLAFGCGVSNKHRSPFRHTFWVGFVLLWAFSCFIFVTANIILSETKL
UniProt Q9BSE2: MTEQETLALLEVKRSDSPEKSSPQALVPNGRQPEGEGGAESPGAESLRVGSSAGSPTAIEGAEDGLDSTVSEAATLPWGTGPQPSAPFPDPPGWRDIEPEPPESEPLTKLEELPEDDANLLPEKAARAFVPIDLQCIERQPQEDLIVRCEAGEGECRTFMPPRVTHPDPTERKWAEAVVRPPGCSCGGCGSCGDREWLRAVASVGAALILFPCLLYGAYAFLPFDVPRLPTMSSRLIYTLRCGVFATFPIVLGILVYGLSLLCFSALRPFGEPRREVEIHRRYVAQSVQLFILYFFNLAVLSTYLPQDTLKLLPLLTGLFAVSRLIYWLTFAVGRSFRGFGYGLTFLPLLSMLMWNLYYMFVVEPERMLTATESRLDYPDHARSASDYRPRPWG
UniProt Q96Q45: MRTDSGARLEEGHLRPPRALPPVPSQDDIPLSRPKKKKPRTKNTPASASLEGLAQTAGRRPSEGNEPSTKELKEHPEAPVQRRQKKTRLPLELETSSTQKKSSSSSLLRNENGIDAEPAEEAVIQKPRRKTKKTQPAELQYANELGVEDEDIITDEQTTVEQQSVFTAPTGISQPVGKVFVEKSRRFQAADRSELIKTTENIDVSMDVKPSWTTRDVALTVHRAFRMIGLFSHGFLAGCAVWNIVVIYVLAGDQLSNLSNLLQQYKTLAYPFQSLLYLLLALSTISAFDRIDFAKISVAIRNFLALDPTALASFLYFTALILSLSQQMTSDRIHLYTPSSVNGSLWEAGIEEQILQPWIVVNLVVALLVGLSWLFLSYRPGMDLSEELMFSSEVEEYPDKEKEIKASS
UniProt Q5T292: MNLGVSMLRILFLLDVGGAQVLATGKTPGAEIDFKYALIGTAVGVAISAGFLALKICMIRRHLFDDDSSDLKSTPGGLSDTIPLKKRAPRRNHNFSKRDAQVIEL
UniProt Q96B96: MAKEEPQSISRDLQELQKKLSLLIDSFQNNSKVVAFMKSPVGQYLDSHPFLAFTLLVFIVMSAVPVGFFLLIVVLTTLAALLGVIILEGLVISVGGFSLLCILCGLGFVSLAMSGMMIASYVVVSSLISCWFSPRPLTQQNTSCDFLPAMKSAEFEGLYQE
UniProt P62328: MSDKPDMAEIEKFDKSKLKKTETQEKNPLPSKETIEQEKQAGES

Some of the results follow.

Common to all, as to assay: log2 fold change, soluble protein after heating vs DMSO (PISA); higher = thermal stabilisation; K562 cells, 10 uM, 30 min; active = over 0.2 and 3.5 SD of the protein, either way, in both replicates (recomputed)
Compound in test [1]: CC1=C(SC2=C1C(=N[C@H](C3=NN=C(N32)C)CC(=O)N)C4=CC=C(C=C4)Cl)C
The method in brief: (§1)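 K562 cells at 2×10^6 cells/mL were treated with 10 μM compound for 30 min. Aliquots were heated for 3 min across 48°C-58°C, pooled, and extracted in PBS with 0.5% NP-40 at 4°C; soluble protein was the supernatant after 21,000xg for 90 min. Soluble protein was quantified by TMTpro 16plex LC-MS/MS with channel sums equalised, and reported as log2 fold change in thermal stability against DMSO controls, with values from duplicates.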

Compound in test [2]: Cc1sc2c(c1C)C(c1ccc(Cl)cc1)=N[C@@H](CC(=O)OC(C)(C)C)c1nnc(C)n1-2
Put shortly:
as §1

Compound in test [3]: c1ccc([C@@H]2C[C@H]2NC2CCNCC2)cc1
Put shortly:
as §1

Compound in test [4]: C1=CC=C(C=C1)[C@H](COC2=CC3=C(C=C2)NC(=O)N3)NC(=O)C4=CC=CN(C4=O)CC5=CC(=C(C=C5)F)F
Put shortly:
as §1

Compound in test [5]: CC1=C2C(=CC=C1)N=C(N(C2=O)C3=CC=CC=C3C)CN4C=NC5=C(N=CN=C54)N
The method in brief: as §1

On to TMEM127 (UniProt O75204), for which the log2 fold change in test [1] is inactive: 0.086; in test [2], inactive: -0.05; in test [3] it was inactive: 0.041.
With TM7SF3 (UniProt Q9NS93), the log2 fold change in test [4] was inactive: -0.058; in test [1], inactive: 0.104; in test [2], inactive: -0.037; in test [3] it was inactive: 0.196.
As to TLNRD1 (UniProt Q9H1K6), the values for the log2 fold change in test [1], in test [2] and in test [3] were inactive: -0.021, inactive: -0.06 and inactive: -0.104, respectively.
TMEM179B (UniProt Q7Z7N9): the log2 fold change in test [4] is inactive: -0.065; in test [1] it was inactive: 0.081; in test [2] it was inactive: 0.005; in test [3] it was inactive: -0.024.
The like results for TMEM268 isoform 3 (UniProt Q5VZI3) were, in that order, inactive: -0.008, inactive: 0, inactive: 0.151 and inactive: 0.063.
Turning to TMEM41A (UniProt Q96HV5), the log2 fold change is inactive: 0.01 in test [4], inactive: 0.06 in test [5] and inactive: -0.08 in test [2].
Consider TMEM131 (UniProt Q92545), for which the log2 fold change in test [2] is inactive: -0.023.
On to TMEM106C (UniProt Q9BVX2), for which the log2 fold change in test [4] is inactive: 0.201; in test [5], inactive: -0.263.
As for TLE5 isoform 2 (UniProt Q08117), the figures for the log2 fold change in test [1], in test [5] and in test [3] were inactive: -0.043, inactive: 0.129 and inactive: -0.021, respectively.
As for TMEM201 (UniProt Q5SNT2), the log2 fold change in test [4] was inactive: -0.03; in test [1], inactive: 0.174; in test [2], inactive: 0.159; in test [3] it was inactive: 0.029.
For the target TMEM120B (UniProt A0PK00), the log2 fold change in test [1] is inactive: 0.204; in test [5], inactive: -0.168; in test [2], inactive: -0.178; in test [3], inactive: -0.057.
In the case of TMCO3 (UniProt Q6UWJ1), the log2 fold change in test [5] is inactive: -0.219.
Turning to TMEM175 (UniProt Q9BSA9), in test [2], the log2 fold change was inactive: -0.026.
As for TMEM123 (UniProt Q8N131), the log2 fold change was inactive: 0.008 in test [4], inactive: 0.029 in test [5] and inactive: 0.123 in test [2].
The corresponding values for TMEM35B (UniProt Q8NCS4) are inactive: -0.011, inactive: 0.166 and inactive: -0.253.
Take TMEM260 (UniProt Q9NX78): the log2 fold change in test [2] was inactive: 0.058.
TM7SF2 (UniProt O76062): the results for the log2 fold change in test [1], in test [5] and in test [3] were inactive: 0.182, inactive: -0.129 and inactive: 0.159, respectively.
Turning to TNFRSF1A (UniProt P19438), the log2 fold change in test [1] is inactive: -0.223; in test [2], inactive: 0.105; in test [3] it was inactive: -0.234.
For the target TMEM104 (UniProt Q8NE00), the log2 fold change in test [1] was inactive: 0.001; in test [3] it was inactive: 0.24.
Regarding TMEM79 (UniProt Q9BSE2), the log2 fold change in test [4] is inactive: -0.16; in test [2], inactive: -0.357.
In the case of TMEM59 (UniProt Q9BXS4), the log2 fold change in test [1] is inactive: 0.01; in test [2], inactive: 0.089; in test [3], inactive: 0.035.
For the target TM6SF1 (UniProt Q9BZW5), the log2 fold change in test [1] is inactive: 0.073; in test [5] it was inactive: 0.243; in test [2] it was inactive: 0.147; in test [3] it was inactive: 0.313.
TMEM237 isoform 3 (UniProt Q96Q45): the log2 fold change in test [5] was inactive: -0.217; in test [2], inactive: 0.162.
Regarding TNFAIP2 (UniProt Q03169), the figures for the log2 fold change in test [4] and in test [2] were inactive: 0.069 and inactive: 0.064, respectively.
For the target TMEM273 isoform 2 (UniProt Q5T292), the log2 fold change in test [5] is inactive: 0.046; in test [2], inactive: -0.178.
As for TMEM143 (UniProt Q96AN5), in test [2], the log2 fold change was inactive: -0.138.
Regarding TMEM159 isoform 2 (UniProt Q96B96), the figures for the log2 fold change in test [4] and in test [2] were inactive: -0.205 and inactive: -0.127, respectively.
Regarding TMSB4X (UniProt P62328), the log2 fold change was inactive: 0.203 in test [4], inactive: 0.069 in test [1], inactive: 0.128 in test [5] and inactive: 0.261 in test [3].
On to TMC6 (UniProt Q7Z403), for which the log2 fold change was inactive: 0.057 in test [1], inactive: -0.016 in test [5], inactive: 0.168 in test [2] and inactive: -0.16 in test [3].
